Reference: article PMC6461653
Results are given in words; binding and its absence hold for the method and conditions named. For some assays here: In cells and extracts the contact can be indirect. Some results given as binding are weak or reduced against the parent protein; the word gives no strength. Sequences can lack the tags named with a protein.

Amino acid sequences for entries named in this document (tags omitted).
UniProt Q24JK1: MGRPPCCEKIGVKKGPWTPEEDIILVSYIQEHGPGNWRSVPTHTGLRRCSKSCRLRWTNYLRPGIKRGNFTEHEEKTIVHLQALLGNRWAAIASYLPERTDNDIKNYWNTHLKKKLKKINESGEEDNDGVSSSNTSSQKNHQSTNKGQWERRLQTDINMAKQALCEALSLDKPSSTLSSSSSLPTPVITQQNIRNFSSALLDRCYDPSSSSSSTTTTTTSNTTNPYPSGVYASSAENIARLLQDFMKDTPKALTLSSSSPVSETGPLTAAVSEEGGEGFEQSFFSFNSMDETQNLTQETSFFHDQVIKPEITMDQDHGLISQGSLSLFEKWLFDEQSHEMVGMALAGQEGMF

Legend:
[1] = molecular target: T1, HDA15 fused to the N-terminal half of yellow fluorescent protein (nYFP) (Arabidopsis thaliana) (UniProt Q8GXJ1); test: split reporter; BiFC: nYFP and cYFP fusions transiently coexpressed in Arabidopsis mesophyll protoplasts, 23 °C, 12-16 h in darkness, confocal microscopy
T1 sequence: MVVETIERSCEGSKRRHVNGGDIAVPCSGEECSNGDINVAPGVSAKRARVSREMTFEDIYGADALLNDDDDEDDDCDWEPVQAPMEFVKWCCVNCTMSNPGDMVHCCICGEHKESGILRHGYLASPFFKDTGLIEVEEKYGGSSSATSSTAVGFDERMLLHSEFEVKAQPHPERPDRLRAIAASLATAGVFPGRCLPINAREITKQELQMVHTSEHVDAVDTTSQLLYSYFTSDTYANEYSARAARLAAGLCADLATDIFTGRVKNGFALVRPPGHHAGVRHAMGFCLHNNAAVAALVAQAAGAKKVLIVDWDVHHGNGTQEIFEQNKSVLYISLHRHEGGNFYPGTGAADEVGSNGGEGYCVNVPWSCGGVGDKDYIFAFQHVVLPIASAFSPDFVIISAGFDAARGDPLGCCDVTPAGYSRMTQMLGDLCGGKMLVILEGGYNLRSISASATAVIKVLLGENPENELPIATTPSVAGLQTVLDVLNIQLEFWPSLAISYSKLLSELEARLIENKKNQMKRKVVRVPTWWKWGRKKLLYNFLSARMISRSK

[2] = molecular target: T2, full-length HDA15 protein fused with the GAL4 DNA binding domain (BD) (Arabidopsis thaliana) (UniProt Q8GXJ1); test: two-hybrid; GAL4 BD (pGBKT7) and GAL4 AD (pGADT7) fusions cotransformed into yeast AH109; growth on SD/-Leu/-Trp/-His/-Ade
T2 sequence: T1 sequence

binding [1] | binding [2] | Substance
binds | – | MYB96 fused to the C-terminal half of YFP (cYFP) (from UniProt Q24JK1 1-352)
– | binds | MYB96 protein fused with the GAL4 activation domain (AD) (from UniProt Q24JK1 1-352)
